# Reference: article PMC7819943, “Rice protein-binding microarrays: a tool to detect cis-acting elements near promoter regions in rice”
# The other results are listed elsewhere or left out.
# Target: T1, OsSMF1 (Oryza sativa, UniProt Q6ZLB0 1-436)
# T1 sequence: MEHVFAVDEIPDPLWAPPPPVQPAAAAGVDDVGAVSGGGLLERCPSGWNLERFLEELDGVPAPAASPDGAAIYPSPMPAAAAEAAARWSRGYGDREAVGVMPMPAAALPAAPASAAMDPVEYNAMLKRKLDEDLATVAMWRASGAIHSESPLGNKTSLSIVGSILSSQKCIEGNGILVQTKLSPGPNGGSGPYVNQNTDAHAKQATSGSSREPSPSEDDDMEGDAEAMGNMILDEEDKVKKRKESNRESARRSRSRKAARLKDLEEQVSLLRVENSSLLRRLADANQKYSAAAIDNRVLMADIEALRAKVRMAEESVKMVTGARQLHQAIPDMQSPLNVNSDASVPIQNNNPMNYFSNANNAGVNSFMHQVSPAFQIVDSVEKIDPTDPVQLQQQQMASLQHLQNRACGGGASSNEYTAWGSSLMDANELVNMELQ
# Experiment: protein-binding microarray (RPBM); PBS, 2% BSA, 51.3 ng/ul salmon testes DNA, 50 uM zinc acetate, 200 nM TF, 25 C, 1 h; high values mean tight binding
# Details: protein: recombinant; tags: N-terminal polyhistidine and DsRed monomer fusion (pET32a); chain copies: 2; label: CyDye5-dUTP incorporated in the synthesized complementary strand; 3' TTTTT single-stranded linker to array surface; dsDNA, one strand shown
# Summary of the method: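 Binding signal is reported as fluorescence intensity per feature (arbitrary units) from an Axon 4000B scanner. Incubation used 200 nM of each Ni–NTA-purified, N-terminally polyhistidine- and DsRed-fused transcription factor from E. coli BL21-CodonPlus on a double-stranded custom Agilent array for 1 h at 25 °C, with 50 µM zinc acetate in the buffer, followed by washing.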
row,Sequence,binding signal
1,ATACTATTAAACTTGCTCTTACACGTGTCAGGCGGGCCCACGGAGTCACCTAGTGCAG,19300 fluorescence intensity (a.u.)
2,CCGCTCTTGGGCCTCACCACGCGGCACCACGGGACGGAAGCGGAGTCACCTAGTGCAG,3860 fluorescence intensity (a.u.)
3,CATTTATGATCAATACTCGACAGCTCATCTGTACACAAAGCGGAGTCACCTAGTGCAG,4950 fluorescence intensity (a.u.)
4,CGCCGCCGGCCGCGCCGCCGCTGCCGCCGTCGCCCCGCGCCGGAGTCACCTAGTGCAG,3450 fluorescence intensity (a.u.)
5,GTGATGGTGGTGTGGATCGGTATGGTGTCGCCATCCATGACGGAGTCACCTAGTGCAG,3550 fluorescence intensity (a.u.)
6,GCCGAGGAAACCCTAGCGCCGCATCCGCCTCCTATATATTCGGAGTCACCTAGTGCAG,3540 fluorescence intensity (a.u.)
7,TACATATAATTGAGGGAGCCAACGTGGACTTATTCCTTTTCGGAGTCACCTAGTGCAG,4090 fluorescence intensity (a.u.)
8,TAAAGTCTTAGCTTGAAATTACTCTTGCCATGTGTCATCGCGGAGTCACCTAGTGCAG,5290 fluorescence intensity (a.u.)
9,GCTAACTCGTCACGTCATTAGAAACCGTACACAATATTGTCGGAGTCACCTAGTGCAG,5240 fluorescence intensity (a.u.)
10,TGGAATACTTATAAACCCTGCATGACTCACTTGATTGGTACGGAGTCACCTAGTGCAG,5880 fluorescence intensity (a.u.)
11,ATATGGGACCTGCTTTAGTTTTGTTGCCACGTAAACGCTTCGGAGTCACCTAGTGCAG,12100 fluorescence intensity (a.u.)
12,GACGAAGCTCGACCTGTACTGCGCGGCCGTGGCTAAATCGCGGAGTCACCTAGTGCAG,3180 fluorescence intensity (a.u.)
13,ATCCGCGCCTCACGCCACGTCAGCGATTCGCGTCTCCTCTCGGAGTCACCTAGTGCAG,14900 fluorescence intensity (a.u.)
14,GCGATTCAAAGGAGCCCAAAAGAGTTAAAAGGAGTGTCAGCGGAGTCACCTAGTGCAG,4170 fluorescence intensity (a.u.)
15,TTAGTATTTAAAATTTAAAAGCAAAGTCATTCTCCTTCTACGGAGTCACCTAGTGCAG,8610 fluorescence intensity (a.u.)
16,CTCTACGTGTCAGACTCGTATCTGGGCCCACCTGACAGCGCGGAGTCACCTAGTGCAG,4090 fluorescence intensity (a.u.)
17,TATACTCTATAATAATACAAATGTGATGCTAGTATATATTCGGAGTCACCTAGTGCAG,22000 fluorescence intensity (a.u.)
18,GTCAAGCATTCGCCCGTGTTTGCTCGCTCCGCTCCGTCACCGGAGTCACCTAGTGCAG,4120 fluorescence intensity (a.u.)
19,ATTCTGTCCCCGATCCCGTCACGTCTCCTGGAAACACCCCCGGAGTCACCTAGTGCAG,3430 fluorescence intensity (a.u.)
20,ACTTTGGATCTAAACACAGCCTAACACGTGTACTACGAGACGGAGTCACCTAGTGCAG,4830 fluorescence intensity (a.u.)
21,TATATAAATATGTGCAGGTGACTAGGCTCAAATGTGGCGGCGGAGTCACCTAGTGCAG,6340 fluorescence intensity (a.u.)
22,TACTCTAAAATTTACCACATCAGCAAGAGCCATTATTTAACGGAGTCACCTAGTGCAG,4050 fluorescence intensity (a.u.)
23,TATCATGTGTTCGTATGTCGTCATCTGGCATGTCTTAGGTCGGAGTCACCTAGTGCAG,4980 fluorescence intensity (a.u.)
24,TGGACGGACGGAGGGACCCACCCATCCACGTCGCCGCTATCGGAGTCACCTAGTGCAG,5100 fluorescence intensity (a.u.)
25,TTGTCGGCCTCAAGTAAAAGGACGTGCAAGGGAGTCATTGCGGAGTCACCTAGTGCAG,3680 fluorescence intensity (a.u.)
26,GTCCACACACGTTGACGAGGCAACGAGATACGGCACCAATCGGAGTCACCTAGTGCAG,4370 fluorescence intensity (a.u.)
27,GGTTGCTGAGCACTTGTGCTGCGCGGGCTACCTACCTGTTCGGAGTCACCTAGTGCAG,27200 fluorescence intensity (a.u.)

row,Sequence,binding signal
1,CAGAGCGAGCGGTTGGGTAAAATCAGGCGCGCGTCACCGGCGGAGTCACCTAGTGCAG,5160 fluorescence intensity (a.u.)
2,TTGTTCCAAGAAAGAAAAGGGAAATTTTCTTTAGCCCACCCGGAGTCACCTAGTGCAG,3180 fluorescence intensity (a.u.)
3,AGGTTCTGCGGCGTCAGGCTGGTCATGTACTTGCCGGGGACGGAGTCACCTAGTGCAG,3270 fluorescence intensity (a.u.)
4,ATAGAATGTTCTTAAGAACCTCAGAACAGTTATAAGAAACCGGAGTCACCTAGTGCAG,17600 fluorescence intensity (a.u.)
5,GCACACATACACATACTGACAATGATGAGTTGATGACACACGGAGTCACCTAGTGCAG,3520 fluorescence intensity (a.u.)
6,CGGCCCATGAGTCCATTGATGACCTGTTCTTTCCTTCCTCCGGAGTCACCTAGTGCAG,5460 fluorescence intensity (a.u.)
7,CATAGATCATTGTATCACATTTTCGATTGCGTGTCAAACACGGAGTCACCTAGTGCAG,6840 fluorescence intensity (a.u.)
8,TAGGATTAATAATCGATTTATTTTGCTGACATCTTGGGAGCGGAGTCACCTAGTGCAG,4260 fluorescence intensity (a.u.)
9,AAACACCGTCGCTGTCAGCCTGTGTGTCACGTTTGGCTATCGGAGTCACCTAGTGCAG,3900 fluorescence intensity (a.u.)
10,GGTACCGAAAATGACGCGCCTCGCCAGCTGTATGCCACCGCGGAGTCACCTAGTGCAG,5110 fluorescence intensity (a.u.)
11,GGTCTTTAGGTTAAGGGTGGTTGTGCCTTATATTTTGGAACGGAGTCACCTAGTGCAG,3670 fluorescence intensity (a.u.)
12,GACGAATTTATTTATATAGTGTGTCACATGGGGTGTTCGGCGGAGTCACCTAGTGCAG,4480 fluorescence intensity (a.u.)
13,TAGCATATTTGGCAATGTTTGCCTCACAGATGCCTCACAACGGAGTCACCTAGTGCAG,31200 fluorescence intensity (a.u.)
14,CGAGTCGGAGGACTACTCGTCGTGCGCCGGCGAGTCAGACCGGAGTCACCTAGTGCAG,4080 fluorescence intensity (a.u.)
15,GCACAAGTTGCAAATTACTACTACTAGTTCGCCAGTCACACGGAGTCACCTAGTGCAG,7790 fluorescence intensity (a.u.)
16,TGGCAGCCGCTTCCTCCCGTCTATATATGCTAAGTCATCACGGAGTCACCTAGTGCAG,5080 fluorescence intensity (a.u.)
17,GCTGCGCCACCGCCTTTTCCTCCTCGGCTACGTGTGCAACCGGAGTCACCTAGTGCAG,4250 fluorescence intensity (a.u.)
18,AGTCAATTTAAACATGGCCGGCTGTAAAATCAATTTAGTCCGGAGTCACCTAGTGCAG,30400 fluorescence intensity (a.u.)
19,GCCCAGCGTGCACGGCGCGACGGACTCGCGCGGCACTAGCCGGAGTCACCTAGTGCAG,5790 fluorescence intensity (a.u.)
20,TAATTCATTCTTAGGTTTTAGTGTACATTGCAAGCTGTAACGGAGTCACCTAGTGCAG,26700 fluorescence intensity (a.u.)
21,CTAACTGGAAGTAAAACGGCTGCTGACAGATTCTAACACACGGAGTCACCTAGTGCAG,3560 fluorescence intensity (a.u.)
22,GCTCCATGCATGCCTCCACATCTCCATGACACAAGTCAGACGGAGTCACCTAGTGCAG,3200 fluorescence intensity (a.u.)
23,GTACTCCTATGAGGCAGGCGAGGCGAGGAGGGAATACATACGGAGTCACCTAGTGCAG,38700 fluorescence intensity (a.u.)
24,CGTTAATTCAGGATGTGTCATATTTTGTCCTACATTAATACGGAGTCACCTAGTGCAG,3270 fluorescence intensity (a.u.)
25,GAAGAACCCAAAGCCCAGCCCACCTCAGCATTCATCCCGCCGGAGTCACCTAGTGCAG,3800 fluorescence intensity (a.u.)
26,GAGAGCAAATGTGCGCTATCGCTTTCCGAAGGCGTAAAGTCGGAGTCACCTAGTGCAG,11400 fluorescence intensity (a.u.)
27,CAAGCCTAATGCGGACAGGATGAGTACATTATAATCTCTGCGGAGTCACCTAGTGCAG,3150 fluorescence intensity (a.u.)

# Some of the entries so far, with tabs.
row	Sequence	binding signal
10	GGTACCGAAAATGACGCGCCTCGCCAGCTGTATGCCACCGCGGAGTCACCTAGTGCAG	5110 fluorescence intensity (a.u.)
12	GACGAATTTATTTATATAGTGTGTCACATGGGGTGTTCGGCGGAGTCACCTAGTGCAG	4480 fluorescence intensity (a.u.)
